Results are given in words; binding and its absence hold for the method and conditions named. A result given as binding can be weak or reduced; the word gives no strength.
Molecular target: σ^R (sigma factor SigR) from Streptomyces coelicolor, residues 5-227, tagless (Streptomyces coelicolor) (UniProt Q7AKG9)
Assay: ITC; RsrA mutants (values in Supplementary Table 1); 35 °C, 50 mM Tris pH 7.5, 100 mM NaCl, 2 mM DTT; direct titration for weaker binding mutants (10 μM RsrA in the cell, 100 μM σ^R in the syringe); RsrA preincubated with ZnCl2 and buffer exchanged where zinc was included; both purified

The chains behind the UniProt entries cited, without tags or fusion partners. Where a name states a change or a piece, a line headed by the entry shows the natural chain unless it says otherwise. Residues count along the entry.
UniProt Q7AKG9, residues 5-227: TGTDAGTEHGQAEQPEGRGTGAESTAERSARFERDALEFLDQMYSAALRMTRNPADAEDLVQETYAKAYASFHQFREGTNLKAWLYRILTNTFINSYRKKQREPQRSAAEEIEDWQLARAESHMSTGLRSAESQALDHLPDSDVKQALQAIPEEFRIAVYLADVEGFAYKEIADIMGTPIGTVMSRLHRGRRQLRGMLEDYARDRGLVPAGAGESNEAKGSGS
UniProt Q7AKG8: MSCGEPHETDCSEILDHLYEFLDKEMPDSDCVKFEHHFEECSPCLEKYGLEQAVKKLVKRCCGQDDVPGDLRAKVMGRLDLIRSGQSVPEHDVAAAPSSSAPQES

- binding: binds
Substance: RsrA* Cys41Ser (from UniProt Q7AKG8)

— PMC4960319
